Measurements from patent US20140315310.
No signal at the amounts used counts as a negative.

Key:
[1] = test system: Bxb1 integrase (serine recombinase) (Mycobacteriophage Bxb1); test: activity in cells; settings: orthogonality: Bxb1 does not operate on phiC31 sites; protein in cells; only the site is given
[2] = test system: phiC31 integrase (serine recombinase); test: activity in cells; settings: protein in cells, only the site is given
[3] = inversion of DNA between attB and attP in E. coli, GFP flow cytometry, 37 C
[4] = orthogonality: phiC31 does not operate on Bxb1 sites

Sequence	activity on this sequence [1]	activity on this sequence [2, 3]	activity on this sequence [2, 4]
GTGCCCCAACTGGGGTAACCTTTGAGTTCTCTCAGTTGGGGG (double strand) [phiC31 attP]	not active	active	
TCGGCCGGCTTGTCGACGACGGCGGTCTCCGTCGTCAGGATCATCCGGGC (double strand) [Bxb1 attB]			not active
TGCGGGTGCCAGGGCGTGCCCTTGGGCTCCCCGGGCGCGTACTCC (double strand) [phiC31 attB]	not active	active	
GTCGTGGTTTGTCTGGTCAACCACCGCGGTCTCAGTGGTGTACGGTACAAACCCCGAC (double strand) [Bxb1 attP]			not active
